Source: PubChem BioAssay AID1508588 (Peter MacCallum Cancer Centre, 2020)
Assay: 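Which gene losses make BRAF-mutant melanoma cells more responsive to vemurafenib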 (primary screen). Cell system: human WM266.4 melanoma cells (BRAF V600 mutant). Reagent: siRNA pool against human genes, 40 nM. Duration: 96 h from transfection to read-out. Challenge: vemurafenib 300 nM (about IC25), added 48 h after transfection, for 48 h; comparison arm got DMSO vehicle only. Measurement: 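Cell gain (DAPI nuclei at end minus before drug, mean of two replicates) and medium lactate by absorbance per cell, both as ratio to non-targeting siRNA, also grouped into fold-change classes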. Direction: cell gain with vemurafenib: higher = more cell gain than with non-targeting siRNA; lactate per cell with vemurafenib: higher = more lactate made per cell. Hit rule: 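Enhancement is called by pairing each knock-down's vehicle-arm and drug-arm fold-change classes for viability or glycolysis; which class combinations qualify is not given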. Calls: active = enhances vemurafenib effect; inactive = no enhancement seen.
Here is a random part of about 18,000 reagents tested. 790 of all reagents (4.4%) were called active. 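Calls rest on a combination of fold-change classes in drug and vehicle arms, not all shown here.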 A number with no mark means an inactive call. Reagent sequences are not shown.

no.	gene knocked down	cell gain with vemurafenib	lactate per cell with vemurafenib
1	STK35 (serine/threonine kinase 35)	0.27	0.52
2	TMEM121 (transmembrane protein 121)	0.53	1.36
3	VCP (valosin containing protein)	0.05	2.95
4	MAGEA4 (MAGE family member A4)	0.33	1.02
5	PBDC1 (polysaccharide biosynthesis domain containing 1)	0.91	0.87
6	DNAJC19 (DnaJ heat shock protein family (Hsp40) member C19)	0.28	1.32
7	ZW10 (zw10 kinetochore protein)	0.56 (active)	0.45
8	C3P1 (complement 3 precursor pseudogene)	0.85	0.73
9	ZNFX1 (zinc finger NFX1-type containing 1)	0.33	0.65
10	CRYAA (crystallin alpha A)	0.63	1.18
11	TSC22D1 (TSC22 domain family member 1)	0.52	0.88
12	BRD10 (bromodomain containing 10)	0.51	1.34
13	SAP30BP (SAP30 binding protein)	0.37	1.4
14	HPRT1 (hypoxanthine phosphoribosyltransferase 1)	0.38	2.04
15	CAPZA1 (capping actin protein of muscle Z-line subunit alpha 1)	0.83	0.52
16	UNC119 (unc-119 lipid binding chaperone)	0.78	1.08
17	APPL2	0.75	1.57
18	OGFR (opioid growth factor receptor)	-0.2	1.61
19	APC (APC regulator of Wnt signaling pathway)	0.87	0.5
20	ANKS3 (ankyrin repeat and sterile alpha motif domain containing 3)	0.57	1.21
21	POLK (DNA polymerase kappa)	0.51	1.12
22	ASCL3 (achaete-scute family bHLH transcription factor 3)	0.35	1.5
23	GID4 (GID complex subunit 4 homolog)	0.84	0.58
24	IGFL2 (IGF like family member 2)	0.94	0.81
25	STPG2 (sperm tail PG-rich repeat containing 2)	1.14	0.53
26	PLCXD1	0.42	1.25
27	TRAPPC4 (trafficking protein particle complex subunit 4)	0.49	0.64
28	ABCG4 (ATP binding cassette subfamily G member 4)	0.18	1.47
29	HACD4 (3-hydroxyacyl-CoA dehydratase 4)	0.96	0.46
30	STX3 (syntaxin 3)	0.6	1.14
31	CGB2 (chorionic gonadotropin subunit beta 2)	0.19	3.17
32	BCL2L14 (BCL2 like 14)	0.17	1.19
33	SACK1E (scaffolding CK1 anchoring protein E)	0.73	0.38
34	PHLPP2 (PH domain and leucine rich repeat protein phosphatase 2)	0.54	1.12
35	MAPK11 (mitogen-activated protein kinase 11)	0.47	0.27
36	SOHLH2	0.92	0.94
37	COPZ1 (coat protein complex I subunit zeta 1)	0.34	1.18
38	PEX10 (peroxisomal biogenesis factor 10)	0.77	0.7
39	ZPLD1 (zona pellucida like domain containing 1)	0.8	0.44

Only “cell gain with vemurafenib” (10 entries from above):
ASCL3 (achaete-scute family bHLH transcription factor 3)	0.35
GID4 (GID complex subunit 4 homolog)	0.84
IGFL2 (IGF like family member 2)	0.94
STPG2 (sperm tail PG-rich repeat containing 2)	1.14
PLCXD1	0.42
TRAPPC4 (trafficking protein particle complex subunit 4)	0.49
ABCG4 (ATP binding cassette subfamily G member 4)	0.18
HACD4 (3-hydroxyacyl-CoA dehydratase 4)	0.96
STX3 (syntaxin 3)	0.6
CGB2 (chorionic gonadotropin subunit beta 2)	0.19

Next records:
no.	gene knocked down	cell gain with vemurafenib	lactate per cell with vemurafenib
40	ADAMTS8 (ADAM metallopeptidase with thrombospondin type 1 motif 8)	0.75	0.74
41	NTN1 (netrin 1)	-0.05	2.01
42	PRB1 (proline rich protein BstNI subfamily 1)	0.8	0.78
43	CLEC2D (C-type lectin domain family 2 member D)	0.51	1.72
44	MRPL15 (mitochondrial ribosomal protein L15)	0.33	1.13
45	BAIAP2L1 (BAR/IMD domain containing adaptor protein 2 like 1)	0.36	0.48
46	FAF2 (Fas associated factor family member 2)	0.93	1.04
47	SBNO2 (strawberry notch homolog 2)	0.72	0.59
48	ARMC1 (armadillo repeat containing 1)	0.82	0.48
49	ROM1 (retinal outer segment membrane protein 1)	0.62	0.36
50	GAL3ST1 (galactose-3-O-sulfotransferase 1)	0.9	0.54
51	ASAP1 (ArfGAP with SH3 domain, ankyrin repeat and PH domain 1)	0.1	1.27
52	WBP2 (WW domain binding protein 2)	1.22	0.3
53	VN1R1 (vomeronasal 1 receptor 1)	-0.09	2.7
54	SORL1 (sortilin related receptor 1)	0.28	2.17
55	SLC52A1	0.7	0.92
56	DHRS7 (dehydrogenase/reductase 7)	0.11	0.58
57	NXT2 (nuclear transport factor 2 like export factor 2)	0.59	1.37
58	BPGM (bisphosphoglycerate mutase)	1.24	0.55
59	SFXN3 (sideroflexin 3)	0.03 (active)	0.2
60	RAB5A (RAB5A, member RAS oncogene family)	0.76	0.49
61	ATXN3 (ataxin 3)	0.82	0.6
62	FGF3 (fibroblast growth factor 3)	0.66	1.56
63	B9D1 (B9 domain containing 1)	0.51	1.15
64	TRIM54 (tripartite motif containing 54)	1.02	0.86
65	NPTX1 (neuronal pentraxin 1)	0.59	0.97
66	RNF180 (ring finger protein 180)	0.91	0.68
67	VPS13B (vacuolar protein sorting 13 homolog B)	0.49	1.34
68	LTAP1 (lipid transport auxiliary protein 1)	0.07	2.17
69	INS (insulin)	0.67	0.6
70	AKAP1 (A-kinase anchoring protein 1)	0.44	0.78
71	ATP8B1 (ATPase phospholipid transporting 8B1)	0.38	1.94
72	ARL1 (ARF like GTPase 1)	0.8	0.79
73	OR13C2 (olfactory receptor family 13 subfamily C member 2)	0.51	1.52
74	UBQLN2 (ubiquilin 2)	0.55	0.84
75	PCDHA8 (protocadherin alpha 8)	0.57	0.94
76	MOCS1 (molybdenum cofactor synthesis 1)	0.57	1
77	RNF41 (ring finger protein 41)	1.01	0.68
78	ELAC1 (elaC ribonuclease Z 1)	0.63	0.99
79	TSPAN17 (tetraspanin 17)	0.81	1.03
80	COA5 (cytochrome c oxidase assembly factor 5)	0.54	1.26
81	LCN1 (lipocalin 1)	0.62	0.95
82	ATP7B (ATPase copper transporting beta)	0.81	0.76
83	TYROBP (transmembrane immune signaling adaptor TYROBP)	0.86	0.64
84	RNF19A (ring finger protein 19A, RBR E3 ubiquitin protein ligase)	0.41	0.94
